# Measurements reported in PMC12487280.
# The chains behind the UniProt entries cited, without tags or fusion partners. Where a name states a change or a piece, a line headed by the entry shows the natural chain unless it says otherwise. A line that says so, or that is headed by a name, gives the form on record, which may keep a tag or linker. Residues count along the entry.
# UniProt Q14157: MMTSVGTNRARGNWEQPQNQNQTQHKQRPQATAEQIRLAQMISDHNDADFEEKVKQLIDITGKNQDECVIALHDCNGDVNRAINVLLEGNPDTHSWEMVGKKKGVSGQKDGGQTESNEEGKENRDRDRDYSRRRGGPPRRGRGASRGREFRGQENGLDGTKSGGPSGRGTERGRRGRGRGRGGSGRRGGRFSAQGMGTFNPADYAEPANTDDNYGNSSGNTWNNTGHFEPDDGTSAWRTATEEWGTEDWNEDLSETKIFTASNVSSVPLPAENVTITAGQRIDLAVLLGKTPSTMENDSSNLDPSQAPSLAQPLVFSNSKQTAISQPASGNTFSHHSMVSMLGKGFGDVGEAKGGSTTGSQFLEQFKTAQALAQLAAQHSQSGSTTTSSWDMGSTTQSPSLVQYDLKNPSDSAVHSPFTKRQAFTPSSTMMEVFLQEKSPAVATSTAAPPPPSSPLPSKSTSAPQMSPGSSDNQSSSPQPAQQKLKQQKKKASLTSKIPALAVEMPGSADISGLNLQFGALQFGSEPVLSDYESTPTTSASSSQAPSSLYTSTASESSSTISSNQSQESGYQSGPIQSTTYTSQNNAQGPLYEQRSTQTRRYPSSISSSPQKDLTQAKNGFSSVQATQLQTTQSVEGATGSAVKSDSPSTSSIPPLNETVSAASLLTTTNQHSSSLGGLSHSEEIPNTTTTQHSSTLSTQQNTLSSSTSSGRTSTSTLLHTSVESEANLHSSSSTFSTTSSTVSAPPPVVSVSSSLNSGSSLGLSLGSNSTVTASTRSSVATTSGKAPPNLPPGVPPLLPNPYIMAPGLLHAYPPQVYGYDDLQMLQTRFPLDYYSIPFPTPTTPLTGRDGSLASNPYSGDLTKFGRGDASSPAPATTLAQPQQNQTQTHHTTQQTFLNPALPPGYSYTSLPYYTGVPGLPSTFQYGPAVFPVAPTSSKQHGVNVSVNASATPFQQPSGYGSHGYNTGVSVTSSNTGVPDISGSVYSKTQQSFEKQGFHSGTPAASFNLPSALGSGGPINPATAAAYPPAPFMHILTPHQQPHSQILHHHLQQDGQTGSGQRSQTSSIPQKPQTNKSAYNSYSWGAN
# Flag-tagged UBAP2L N-terminal sequence (amino acids 1-100): residues 1-100 of Q14157
# UniProt O94972: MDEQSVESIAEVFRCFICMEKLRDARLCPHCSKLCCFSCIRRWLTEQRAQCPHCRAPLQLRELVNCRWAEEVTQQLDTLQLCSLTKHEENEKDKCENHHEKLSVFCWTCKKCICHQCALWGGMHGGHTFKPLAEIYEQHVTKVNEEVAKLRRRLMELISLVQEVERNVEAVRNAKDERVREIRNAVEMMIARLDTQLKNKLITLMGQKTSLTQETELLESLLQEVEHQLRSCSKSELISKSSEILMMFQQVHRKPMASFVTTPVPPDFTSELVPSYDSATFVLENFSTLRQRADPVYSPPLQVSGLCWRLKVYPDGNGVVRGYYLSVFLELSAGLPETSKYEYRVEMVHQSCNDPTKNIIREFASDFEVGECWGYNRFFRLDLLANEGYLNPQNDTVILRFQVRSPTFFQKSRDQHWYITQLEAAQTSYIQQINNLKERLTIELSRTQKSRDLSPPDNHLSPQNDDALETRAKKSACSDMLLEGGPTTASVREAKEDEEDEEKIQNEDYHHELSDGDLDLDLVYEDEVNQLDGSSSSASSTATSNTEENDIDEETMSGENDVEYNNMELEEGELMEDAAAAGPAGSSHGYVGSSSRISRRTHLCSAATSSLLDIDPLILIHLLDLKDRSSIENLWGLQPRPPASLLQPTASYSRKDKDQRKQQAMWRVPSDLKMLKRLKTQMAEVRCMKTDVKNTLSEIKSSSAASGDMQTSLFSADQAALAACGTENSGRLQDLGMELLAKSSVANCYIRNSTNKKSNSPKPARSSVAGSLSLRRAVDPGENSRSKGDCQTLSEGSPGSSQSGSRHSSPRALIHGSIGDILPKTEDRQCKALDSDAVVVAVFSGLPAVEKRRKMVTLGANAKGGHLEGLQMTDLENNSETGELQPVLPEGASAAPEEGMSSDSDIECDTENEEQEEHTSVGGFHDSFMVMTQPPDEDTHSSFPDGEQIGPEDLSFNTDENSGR
# Where two headings read alike, the source gives them in different places. Results are given in words; binding and its absence hold for the method and conditions named. In cells and extracts the contact can be indirect. Some results given as binding are weak or reduced against the parent protein; the word gives no strength. For some assays here: Tags and fused reporters may be left off the sequences shown.
# T1: OGT (O-GlcNAc transferase), endogenous in ccRCC cells (human (endogenous in 786-O and Caki-1)) (UniProt O15294)
# T1 sequence: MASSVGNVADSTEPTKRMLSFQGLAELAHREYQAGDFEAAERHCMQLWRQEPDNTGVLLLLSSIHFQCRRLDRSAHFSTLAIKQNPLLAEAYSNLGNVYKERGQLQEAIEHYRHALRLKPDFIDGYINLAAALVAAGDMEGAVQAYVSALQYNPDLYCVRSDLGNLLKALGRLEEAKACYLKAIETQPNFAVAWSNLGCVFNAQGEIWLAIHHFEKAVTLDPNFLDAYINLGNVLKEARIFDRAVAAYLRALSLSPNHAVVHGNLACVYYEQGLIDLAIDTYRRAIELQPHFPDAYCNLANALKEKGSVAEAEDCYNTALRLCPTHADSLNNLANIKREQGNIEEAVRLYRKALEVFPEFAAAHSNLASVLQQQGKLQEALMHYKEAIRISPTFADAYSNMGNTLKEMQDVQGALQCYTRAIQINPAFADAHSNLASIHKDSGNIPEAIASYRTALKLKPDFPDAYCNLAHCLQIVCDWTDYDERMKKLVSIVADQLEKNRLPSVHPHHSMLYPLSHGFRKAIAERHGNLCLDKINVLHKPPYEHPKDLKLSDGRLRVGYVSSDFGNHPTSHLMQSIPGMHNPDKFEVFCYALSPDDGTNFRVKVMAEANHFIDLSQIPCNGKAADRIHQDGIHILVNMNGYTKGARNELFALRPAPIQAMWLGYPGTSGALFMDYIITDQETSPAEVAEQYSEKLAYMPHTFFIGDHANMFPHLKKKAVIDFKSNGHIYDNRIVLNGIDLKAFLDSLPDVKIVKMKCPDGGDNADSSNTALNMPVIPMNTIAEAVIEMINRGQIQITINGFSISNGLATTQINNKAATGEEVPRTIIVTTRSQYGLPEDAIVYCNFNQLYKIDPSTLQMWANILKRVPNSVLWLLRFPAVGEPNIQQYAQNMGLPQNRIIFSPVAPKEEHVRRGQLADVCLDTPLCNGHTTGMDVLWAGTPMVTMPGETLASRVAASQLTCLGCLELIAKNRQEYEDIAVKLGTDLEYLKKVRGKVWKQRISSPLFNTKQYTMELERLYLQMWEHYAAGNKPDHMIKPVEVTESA
# T2: HA-tagged FL OGT (O-GlcNAc transferase), expressed in HEK293T cells (UniProt O15294)
# T2 sequence: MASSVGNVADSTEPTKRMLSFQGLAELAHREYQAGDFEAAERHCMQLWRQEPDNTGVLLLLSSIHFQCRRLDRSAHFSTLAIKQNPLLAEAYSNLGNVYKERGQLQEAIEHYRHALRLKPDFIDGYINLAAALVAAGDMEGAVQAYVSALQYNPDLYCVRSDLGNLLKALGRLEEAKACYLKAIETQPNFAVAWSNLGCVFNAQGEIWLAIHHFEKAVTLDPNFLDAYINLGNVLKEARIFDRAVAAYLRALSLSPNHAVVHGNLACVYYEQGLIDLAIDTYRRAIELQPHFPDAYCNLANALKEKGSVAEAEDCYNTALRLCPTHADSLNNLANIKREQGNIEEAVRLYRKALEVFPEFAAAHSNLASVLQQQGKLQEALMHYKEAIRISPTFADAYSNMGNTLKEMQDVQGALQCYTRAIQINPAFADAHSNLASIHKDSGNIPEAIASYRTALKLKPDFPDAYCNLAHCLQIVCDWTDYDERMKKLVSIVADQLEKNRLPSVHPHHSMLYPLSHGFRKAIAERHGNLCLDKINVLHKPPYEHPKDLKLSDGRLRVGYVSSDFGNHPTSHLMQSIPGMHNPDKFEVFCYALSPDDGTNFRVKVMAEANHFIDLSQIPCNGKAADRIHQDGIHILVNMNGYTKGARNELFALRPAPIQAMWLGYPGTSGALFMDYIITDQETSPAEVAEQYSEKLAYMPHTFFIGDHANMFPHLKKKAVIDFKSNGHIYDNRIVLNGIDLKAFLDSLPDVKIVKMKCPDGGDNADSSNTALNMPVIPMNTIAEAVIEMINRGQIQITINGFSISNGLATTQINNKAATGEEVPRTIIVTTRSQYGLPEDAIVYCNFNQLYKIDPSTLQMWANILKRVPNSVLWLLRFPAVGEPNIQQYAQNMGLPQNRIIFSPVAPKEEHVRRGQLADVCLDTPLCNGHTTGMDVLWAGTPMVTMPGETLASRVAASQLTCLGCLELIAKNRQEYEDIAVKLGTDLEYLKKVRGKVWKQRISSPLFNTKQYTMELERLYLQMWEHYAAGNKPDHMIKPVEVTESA
# T3: HA-tagged OGT C-terminal sequence (amino acids 801-1046) (UniProt O15294)
# T3 sequence: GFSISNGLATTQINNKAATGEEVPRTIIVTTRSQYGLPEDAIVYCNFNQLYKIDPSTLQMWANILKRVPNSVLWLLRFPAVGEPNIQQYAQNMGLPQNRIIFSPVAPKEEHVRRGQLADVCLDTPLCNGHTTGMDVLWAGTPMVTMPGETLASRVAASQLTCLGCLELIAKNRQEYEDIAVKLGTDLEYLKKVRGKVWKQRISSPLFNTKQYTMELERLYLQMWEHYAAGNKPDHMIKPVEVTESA
# T4: GST-OGT recombinant (UniProt O15294)
# T4 sequence: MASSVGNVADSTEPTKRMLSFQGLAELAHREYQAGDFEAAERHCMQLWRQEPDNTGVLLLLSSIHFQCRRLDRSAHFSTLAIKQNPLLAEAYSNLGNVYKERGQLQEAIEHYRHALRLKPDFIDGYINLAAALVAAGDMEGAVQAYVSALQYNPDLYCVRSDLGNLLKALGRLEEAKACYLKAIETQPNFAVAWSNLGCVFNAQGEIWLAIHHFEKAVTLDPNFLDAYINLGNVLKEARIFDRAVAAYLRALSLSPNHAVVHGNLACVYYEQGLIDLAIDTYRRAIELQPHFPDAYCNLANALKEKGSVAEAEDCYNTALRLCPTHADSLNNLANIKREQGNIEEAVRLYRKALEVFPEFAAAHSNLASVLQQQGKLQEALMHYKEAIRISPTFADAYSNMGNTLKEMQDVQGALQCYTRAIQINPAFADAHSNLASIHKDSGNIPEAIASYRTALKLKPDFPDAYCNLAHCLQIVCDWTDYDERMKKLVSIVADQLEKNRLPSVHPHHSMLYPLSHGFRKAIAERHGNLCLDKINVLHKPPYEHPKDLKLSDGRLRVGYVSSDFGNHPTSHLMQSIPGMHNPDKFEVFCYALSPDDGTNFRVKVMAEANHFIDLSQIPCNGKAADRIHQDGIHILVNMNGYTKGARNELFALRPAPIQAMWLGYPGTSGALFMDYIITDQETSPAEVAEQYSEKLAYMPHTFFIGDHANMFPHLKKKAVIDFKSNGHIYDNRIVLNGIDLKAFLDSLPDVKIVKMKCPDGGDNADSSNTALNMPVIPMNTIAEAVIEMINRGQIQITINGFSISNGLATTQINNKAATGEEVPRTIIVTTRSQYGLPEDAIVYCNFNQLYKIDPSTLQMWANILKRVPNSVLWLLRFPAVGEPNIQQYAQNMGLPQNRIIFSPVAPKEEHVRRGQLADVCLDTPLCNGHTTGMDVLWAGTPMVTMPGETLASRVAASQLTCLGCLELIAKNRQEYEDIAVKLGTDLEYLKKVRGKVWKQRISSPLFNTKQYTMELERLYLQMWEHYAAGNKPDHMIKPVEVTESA
# Experiments:
# [1] = molecular target: T1, OGT (O-GlcNAc transferase), endogenous in ccRCC cells (human (endogenous in 786-O and Caki-1)); assay: co-IP; endogenous proteins in lysates of ccRCC cells (786-O, Caki-1); IP with specific antibodies or IgG control, immunoblot; for TRIM37-UBAP2L also cells with shCtrl, shOGT or shOGA
# [2] = molecular target: T2, HA-tagged FL OGT (O-GlcNAc transferase), expressed in HEK293T cells; assay: co-IP; HEK293T cells co-transfected with Flag-UBAP2L and HA-OGT (full length or deletion mutants); IP with anti-HA or anti-Flag, immunoblot; RIPA buffer, 4 °C
# [3] = molecular target: T3, HA-tagged OGT C-terminal sequence (amino acids 801-1046); assay: as above
# GST-OGT recombinant = molecular target: T4, GST-OGT recombinant; assay: pull-down; GST or GST-OGT from E. coli BL21 immobilized onto Anti-GST Magnetic Beads, incubated with cell lysates overnight at 4 °C; immunoblot; only the target purified
# [4] = molecular target: UBAP2L (ubiquitin-associated protein 2-like), endogenous in ccRCC cells (human (endogenous in 786-O and Caki-1)) (UniProt Q14157); assay: co-IP; endogenous proteins in lysates of ccRCC cells (786-O, Caki-1); IP with specific antibodies or IgG control, immunoblot; for TRIM37-UBAP2L also cells with shCtrl, shOGT or shOGA
# [5] = molecular target: Flag-tagged FL UBAP2L, expressed in HEK293T cells (UniProt Q14157); assay: co-IP; HEK293T cells co-transfected with Flag-UBAP2L and HA-OGT (full length or deletion mutants); IP with anti-HA or anti-Flag, immunoblot; RIPA buffer, 4 °C
# [6] = molecular target: Flag-tagged UBAP2L N-terminal sequence (amino acids 1-100) (UniProt Q14157); assay: as above
# [7] = molecular target: UBAP2L (ubiquitin-associated protein 2-like), endogenous in ccRCC cells (human (endogenous in 786-O and Caki-1)) (UniProt Q14157); assay: co-IP; endogenous proteins in lysates of ccRCC cells (786-O, Caki-1); IP with specific antibodies or IgG control, immunoblot; for TRIM37-UBAP2L also cells with shCtrl, shOGT or shOGA; remark: listed apart in the source
molecule,measurement,setting,value
"UBAP2L (ubiquitin-associated protein 2-like), endogenous in ccRCC cells (from UniProt Q14157 1-1087)",binding,[1],binds
"Flag-tagged FL UBAP2L, expressed in HEK293T cells (from UniProt Q14157 1-1087)",binding,[2],binds
same,binding,[3],binds
UBAP2L in the cell lysate of the GST pull-down (from UniProt Q14157 1-1087),binding,GST-OGT recombinant,binds
"TRIM37, endogenous in ccRCC cells (from UniProt O94972 1-964) (enzyme)",binding,[4],binds
"HA-tagged FL OGT (O-GlcNAc transferase), expressed in HEK293T cells (enzyme, UniProt O15294 1-1046) MASSVGNVADSTEPTKRMLSFQGLAELAHREYQAGDFEAAERHCMQLWRQEPDNTGVLLLLSSIHFQCRRLDRSAHFSTLAIKQNPLLAEAYSNLGNVYKERGQLQEAIEHYRHALRLKPDFIDGYINLAAALVAAGDMEGAVQAYVSALQYNPDLYCVRSDLGNLLKALGRLEEAKACYLKAIETQPNFAVAWSNLGCVFNAQGEIWLAIHHFEKAVTLDPNFLDAYINLGNVLKEARIFDRAVAAYLRALSLSPNHAVVHGNLACVYYEQGLIDLAIDTYRRAIELQPHFPDAYCNLANALKEKGSVAEAEDCYNTALRLCPTHADSLNNLANIKREQGNIEEAVRLYRKALEVFPEFAAAHSNLASVLQQQGKLQEALMHYKEAIRISPTFADAYSNMGNTLKEMQDVQGALQCYTRAIQINPAFADAHSNLASIHKDSGNIPEAIASYRTALKLKPDFPDAYCNLAHCLQIVCDWTDYDERMKKLVSIVADQLEKNRLPSVHPHHSMLYPLSHGFRKAIAERHGNLCLDKINVLHKPPYEHPKDLKLSDGRLRVGYVSSDFGNHPTSHLMQSIPGMHNPDKFEVFCYALSPDDGTNFRVKVMAEANHFIDLSQIPCNGKAADRIHQDGIHILVNMNGYTKGARNELFALRPAPIQAMWLGYPGTSGALFMDYIITDQETSPAEVAEQYSEKLAYMPHTFFIGDHANMFPHLKKKAVIDFKSNGHIYDNRIVLNGIDLKAFLDSLPDVKIVKMKCPDGGDNADSSNTALNMPVIPMNTIAEAVIEMINRGQIQITINGFSISNGLATTQINNKAATGEEVPRTIIVTTRSQYGLPEDAIVYCNFNQLYKIDPSTLQMWANILKRVPNSVLWLLRFPAVGEPNIQQYAQNMGLPQNRIIFSPVAPKEEHVRRGQLADVCLDTPLCNGHTTGMDVLWAGTPMVTMPGETLASRVAASQLTCLGCLELIAKNRQEYEDIAVKLGTDLEYLKKVRGKVWKQRISSPLFNTKQYTMELERLYLQMWEHYAAGNKPDHMIKPVEVTESA",binding,[5],binds
same,binding,[6],binds
"OGT (O-GlcNAc transferase), endogenous in ccRCC cells (enzyme, UniProt O15294 1-1046) MASSVGNVADSTEPTKRMLSFQGLAELAHREYQAGDFEAAERHCMQLWRQEPDNTGVLLLLSSIHFQCRRLDRSAHFSTLAIKQNPLLAEAYSNLGNVYKERGQLQEAIEHYRHALRLKPDFIDGYINLAAALVAAGDMEGAVQAYVSALQYNPDLYCVRSDLGNLLKALGRLEEAKACYLKAIETQPNFAVAWSNLGCVFNAQGEIWLAIHHFEKAVTLDPNFLDAYINLGNVLKEARIFDRAVAAYLRALSLSPNHAVVHGNLACVYYEQGLIDLAIDTYRRAIELQPHFPDAYCNLANALKEKGSVAEAEDCYNTALRLCPTHADSLNNLANIKREQGNIEEAVRLYRKALEVFPEFAAAHSNLASVLQQQGKLQEALMHYKEAIRISPTFADAYSNMGNTLKEMQDVQGALQCYTRAIQINPAFADAHSNLASIHKDSGNIPEAIASYRTALKLKPDFPDAYCNLAHCLQIVCDWTDYDERMKKLVSIVADQLEKNRLPSVHPHHSMLYPLSHGFRKAIAERHGNLCLDKINVLHKPPYEHPKDLKLSDGRLRVGYVSSDFGNHPTSHLMQSIPGMHNPDKFEVFCYALSPDDGTNFRVKVMAEANHFIDLSQIPCNGKAADRIHQDGIHILVNMNGYTKGARNELFALRPAPIQAMWLGYPGTSGALFMDYIITDQETSPAEVAEQYSEKLAYMPHTFFIGDHANMFPHLKKKAVIDFKSNGHIYDNRIVLNGIDLKAFLDSLPDVKIVKMKCPDGGDNADSSNTALNMPVIPMNTIAEAVIEMINRGQIQITINGFSISNGLATTQINNKAATGEEVPRTIIVTTRSQYGLPEDAIVYCNFNQLYKIDPSTLQMWANILKRVPNSVLWLLRFPAVGEPNIQQYAQNMGLPQNRIIFSPVAPKEEHVRRGQLADVCLDTPLCNGHTTGMDVLWAGTPMVTMPGETLASRVAASQLTCLGCLELIAKNRQEYEDIAVKLGTDLEYLKKVRGKVWKQRISSPLFNTKQYTMELERLYLQMWEHYAAGNKPDHMIKPVEVTESA",binding,[7],binds
